# Measured values taken from the supplement of paper PMC8728848.
# This is one part of the list.
# B1: B936 (Bifidobacterium sp) (protein)
# chain: MKNWKKAIALVASAAALVSVAACGPSNAGGSSDSGKKTVGFVAVGPEGGFRTANEKDIQKAFEDAGFDLTYSPTQNNDQQKQIQAFNKFVNDEVDAIILSSTEDSGWDDSLKKAAEAEIPVFTVDRNVDVKDAEAKKAIVAHIGPSNVWCGEQAAEFVNKNFPDGANGFILEGPAGLSVVKDRGTGWGNKVASNVKVLESQSANWSTDEAKTVTAGLLDKYKSDNPQFIFAQNDEMGLGAAQAVDAAGLKGKVKIITIDGTKNALQALVDGDLSYVIEYNPIFGKETAQAVKDYLDGKTVEKDIEIESKTFDAASAKEALDNNTRAY
# How the values were obtained:
# Test in all cases: glycan array binding signal (z-score within array); higher = stronger binding
# Conditions in all cases: glycan notation: IUPAC condensed, linker removed
# [1] = target: Neu5Ac(a2-3)Gal(b1-4)GlcNAc(b1-3)Gal(b1-4)GlcNAc(b1-3)Gal(b1-4)GlcNAc
# In short: (§1)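 Glycan array binding is given as a within-array Z-score, which can be read as non-binding when negative. The arrays, 3228 of them, came from the Consortium for Functional Glycomics database and were retained only where the protein sequence was available. Z-scores were averaged across arrays of the same protein sequence at different concentrations or buffers and across linkers.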
# [2] = target: Neu5Ac(a2-3)Gal(b1-4)GlcNAc(b1-3)Gal(b1-4)GlcNAc(b1-3)Gal(b1-4)GlcNAc(b1-2)Man(a1-3)[Neu5Ac(a2-3)Gal(b1-4)GlcNAc(b1-3)Gal(b1-4)GlcNAc(b1-3)Gal(b1-4)GlcNAc(b1-2)Man(a1-6)]GalNAc
# In short: as §1
# [3] = target: Neu5Ac(a2-3)Gal(b1-4)GlcNAc(b1-3)Gal(b1-4)GlcNAc(b1-3)GalNAc
# In short: as §1
# [4] = target: Neu5Ac(a2-3)Gal(b1-4)GlcNAc(b1-3)Gal(b1-4)GlcNAc(b1-3)[Neu5Ac(a2-3)Gal(b1-4)GlcNAc(b1-3)Gal(b1-4)GlcNAc(b1-6)]GalNAc
# In short: as §1
# [5] = target: Neu5Ac(a2-3)Gal(b1-4)GlcNAc(b1-3)Gal(b1-4)GlcNAc(b1-6)[Gal(b1-3)]GalNAc
# In short: as §1
# [6] = target: Neu5Ac(a2-3)Gal(b1-4)GlcNAc(b1-3)Gal(b1-4)[Fuc(a1-3)]GlcNAc
# In short: as §1
# [7] = target: Neu5Ac(a2-3)Gal(b1-4)GlcNAc(b1-3)GalNAc
# In short: as §1
# [8] = target: Neu5Ac(a2-3)Gal(b1-4)GlcNAc(b1-3)[Neu5Ac(a2-3)Gal(b1-4)GlcNAc(b1-6)]GalNAc
# In short: as §1
# [9] = target: Neu5Ac(a2-3)Gal(b1-4)GlcNAc(b1-6)GalNAc
# In short: as §1
# [10] = target: Neu5Ac(a2-3)Gal(b1-4)GlcNAc(b1-6)[Gal(b1-3)]GalNAc
# In short: as §1
# [11] = target: Neu5Ac(a2-3)Gal(b1-4)GlcNAc(b1-6)[Neu5Ac(a2-3)Gal(b1-3)]GalNAc
# In short: as §1
# [12] = target: Neu5Ac(a2-3)Gal(b1-4)GlcNAc6S
# In short: as §1
# [13] = target: Neu5Ac(a2-3)Gal(b1-4)[Fuc(a1-3)]GlcNAc
# In short: as §1
# [14] = target: Neu5Ac(a2-3)Gal(b1-4)[Fuc(a1-3)]GlcNAc(b1-2)Man
# In short: as §1
# [15] = target: Neu5Ac(a2-3)Gal(b1-4)[Fuc(a1-3)]GlcNAc(b1-3)Gal
# In short: as §1
# [16] = target: Neu5Ac(a2-3)Gal(b1-4)[Fuc(a1-3)]GlcNAc(b1-3)Gal(b1-4)GlcNAc
# In short: as §1
# [17] = target: Neu5Ac(a2-3)Gal(b1-4)[Fuc(a1-3)]GlcNAc(b1-3)Gal(b1-4)[Fuc(a1-3)]GlcNAc(b1-3)Gal(b1-4)[Fuc(a1-3)]GlcNAc
# In short: as §1
# [18] = target: Neu5Ac(a2-3)Gal(b1-4)[Fuc(a1-3)]GlcNAc(b1-3)GalNAc
# In short: as §1
# [19] = target: Neu5Ac(a2-3)Gal(b1-4)[Fuc(a1-3)]GlcNAc(b1-6)[Gal(b1-3)]GalNAc
# In short: as §1
# [20] = target: Neu5Ac(a2-3)Gal(b1-4)[Fuc(a1-3)]GlcNAc(b1-6)[Neu5Ac(a2-3)Gal(b1-3)]GalNAc
# In short: as §1
# [21] = target: Neu5Ac(a2-3)Gal(b1-4)[Fuc(a1-3)]GlcNAc6S
# In short: as §1
# [22] = target: Neu5Ac(a2-3)Gal6S(b1-4)GlcNAc
# In short: as §1
# [23] = target: Neu5Ac(a2-3)Gal6S(b1-4)[Fuc(a1-3)]GlcNAc
# In short: as §1
# Neu5Ac(a2-3)GalNAc = target: Neu5Ac(a2-3)GalNAc
# In short: as §1
# [24] = target: Neu5Ac(a2-3)GalNAc(b1-4)GlcNAc
# In short: as §1
# [25] = target: Neu5Ac(a2-3)[GalNAc(b1-4)]Gal(b1-4)Glc
# In short: as §1
# [26] = target: Neu5Ac(a2-3)[GalNAc(b1-4)]Gal(b1-4)GlcNAc
# In short: as §1
# [27] = target: Neu5Ac(a2-3)[GalNAc(b1-4)]Gal(b1-4)GlcNAc(b1-3)GalNAc
# In short: as §1
# [28] = target: Neu5Ac(a2-3)[Neu5Ac(a2-6)]GalNAc
# In short: as §1
# Neu5Ac(a2-6)Gal = target: Neu5Ac(a2-6)Gal
# In short: as §1
# [29] = target: Neu5Ac(a2-6)Gal(b1-3)GlcNAc(b1-3)[Gal(b1-4)GlcNAc(b1-6)]Gal(b1-4)Glc
# In short: as §1
# Neu5Ac(a2-6)Gal(b1-4)Glc = target: Neu5Ac(a2-6)Gal(b1-4)Glc
# In short: as §1
# [30] = target: Neu5Ac(a2-6)Gal(b1-4)GlcNAc
# In short: as §1
# [31] = target: Neu5Ac(a2-6)Gal(b1-4)GlcNAc(b1-2)Man
# In short: as §1
# [32] = target: Neu5Ac(a2-6)Gal(b1-4)GlcNAc(b1-2)Man(a1-3)Man(b1-4)GlcNAc(b1-4)GlcNAc
# In short: as §1
# [33] = target: Neu5Ac(a2-6)Gal(b1-4)GlcNAc(b1-2)Man(a1-3)[Gal(b1-4)GlcNAc(b1-2)Man(a1-6)]Man(b1-4)GlcNAc(b1-4)GlcNAc
# In short: as §1
# [34] = target: Neu5Ac(a2-6)Gal(b1-4)GlcNAc(b1-2)Man(a1-3)[GlcNAc(b1-2)Man(a1-6)]Man(b1-4)GlcNAc(b1-4)GlcNAc
# In short: as §1
# [35] = target: Neu5Ac(a2-6)Gal(b1-4)GlcNAc(b1-2)Man(a1-3)[GlcNAc(b1-4)][Neu5Ac(a2-6)Gal(b1-4)GlcNAc(b1-2)Man(a1-6)]Man(b1-4)GlcNAc(b1-4)GlcNAc
# In short: as §1
binder,measurement,setting,value
B1,glycan array binding signal (z-score),[1],1.16
same,glycan array binding signal (z-score),[2],-0.135
same,glycan array binding signal (z-score),[3],-0.804
same,glycan array binding signal (z-score),[4],0.022
same,glycan array binding signal (z-score),[5],0.889
same,glycan array binding signal (z-score),[6],-1.55
same,glycan array binding signal (z-score),[7],0.531
same,glycan array binding signal (z-score),[8],-0.045
same,glycan array binding signal (z-score),[9],0.205
same,glycan array binding signal (z-score),[10],-0.468
same,glycan array binding signal (z-score),[11],-0.773
same,glycan array binding signal (z-score),[12],-0.108
same,glycan array binding signal (z-score),[13],-0.682
same,glycan array binding signal (z-score),[14],-0.775
same,glycan array binding signal (z-score),[15],-0.642
same,glycan array binding signal (z-score),[16],0.579
same,glycan array binding signal (z-score),[17],1.11
same,glycan array binding signal (z-score),[18],0.865
same,glycan array binding signal (z-score),[19],0.094
same,glycan array binding signal (z-score),[20],1.08
same,glycan array binding signal (z-score),[21],0.03
same,glycan array binding signal (z-score),[22],-0.525
same,glycan array binding signal (z-score),[23],-0.317
same,glycan array binding signal (z-score),Neu5Ac(a2-3)GalNAc,-0.289
same,glycan array binding signal (z-score),[24],-0.107
same,glycan array binding signal (z-score),[25],-0.48
same,glycan array binding signal (z-score),[26],0.221
same,glycan array binding signal (z-score),[27],-0.056
same,glycan array binding signal (z-score),[28],-0.232
same,glycan array binding signal (z-score),Neu5Ac(a2-6)Gal,0.359
same,glycan array binding signal (z-score),[29],-0.232
same,glycan array binding signal (z-score),Neu5Ac(a2-6)Gal(b1-4)Glc,-0.726
same,glycan array binding signal (z-score),[30],-0.479
same,glycan array binding signal (z-score),[31],-0.408
same,glycan array binding signal (z-score),[32],-0.09
same,glycan array binding signal (z-score),[33],-0.265
same,glycan array binding signal (z-score),[34],-0.546
same,glycan array binding signal (z-score),[35],-0.397

# An excerpt of these results, with bars between the fields.
binder | measurement | setting | value
B1 | glycan array binding signal (z-score) | [22] | -0.525
same | glycan array binding signal (z-score) | [23] | -0.317
same | glycan array binding signal (z-score) | Neu5Ac(a2-3)GalNAc | -0.289
